Data source: PubChem BioAssay AID1259282 (Sanger Institute, 2017)
Here is one part, drawn at random, of 794 deposited reagents. 11 of them (1.4%) were called active. 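Calls flag knock-downs that lower viability without drug; drug synergy appears only in the synergy scores; exposure time not stated.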 No viability above 1 is reported: the scale is capped. Reagent sequences are not shown. Not stated in the record: the amount of reagent, the time to read-out.

- Purpose: 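siRNA screen across the kinome seeking drug combinations lethal to colorectal cancer cells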 (primary screen)
- Cells: DIFI human colorectal cancer cell line
- Reagent: siRNA pool against human genes
- Treatment: anchor drug at a mild dose (BYL719 1 µM, cetuximab 5 µg/ml, trametinib 10 nM) or DMSO vehicle; exposure time not given
- Detection: 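Viability relative to non-targeting pool wells, replicate mean, in DMSO or low-dose BYL719, cetuximab or trametinib; robust z-score without drug; synergy score per drug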
- Direction: robust z-score, knock-down alone: higher = more viable cells than typical knock-down; viability, knock-down alone: higher = more viable cells; synergy score with trametinib and synergy score with cetuximab and synergy score with BYL719: higher = stronger combined killing with drug
- Active means: 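a knock-down is called essential if its DMSO robust z-score is under -3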
- Calls: active = essential (knock-down alone, z below -3); inactive = not essential

Gene | robust z-score, knock-down alone | viability, knock-down alone (fraction of control) | synergy score with trametinib | synergy score with cetuximab | synergy score with BYL719 | call
NR2F2 | 0.038 | 0.902 | 0.248 | 0.159 | 0.0221 | inactive
POMK | 0.715 | 1 | -0.0316 | -0.0673 | -0.243 | inactive
SMAD2 | -1.37 | 0.698 | -0.148 | -0.0551 | -0.116 | inactive
PIK3C2B | 0.715 | 1 | 0.252 | 0.15 | 0.0125 | inactive
MLKL | 0.715 | 1 | -0.134 | 0.0171 | -0.256 | inactive
CDK1 | 0.715 | 1 | -0.162 | -0.114 | -0.289 | inactive
DGKD | 0.0216 | 0.899 | -0.0252 | 0.0861 | -0.0906 | inactive
PAPSS2 | 0.715 | 1 | 0.175 | 0.156 | 0.0377 | inactive
STK35 | 0.715 | 1 | -0.0785 | -0.18 | -0.194 | inactive
PACSIN1 | 0.00319 | 0.897 | 0.165 | 0.00563 | -0.0113 | inactive
AK1 | 0.715 | 1 | 0.251 | 0.146 | -0.04 | inactive
CAMK1D | 0.277 | 0.936 | 0.202 | 0.0555 | 0.0201 | inactive

Individual results from the entries so far:
CDK1, synergy score with trametinib → -0.162
Result for SMAD2 under “viability, knock-down alone (fraction of control)”: 0.698
CAMK1D, synergy score with BYL719 = 0.0201

Additional records follow:
Gene | robust z-score, knock-down alone | viability, knock-down alone (fraction of control) | synergy score with trametinib | synergy score with cetuximab | synergy score with BYL719 | call
MAST4 | 0.715 | 1 | -0.249 | -0.224 | -0.276 | inactive
BMP2K | 0.715 | 1 | 0.164 | 0.105 | -0.0926 | inactive
SRP72 | 0.715 | 1 | -0.118 | -0.123 | -0.243 | inactive
PASK | 0.128 | 0.915 | 0.18 | 0.119 | -0.0555 | inactive
NUCKS1 | 0.715 | 1 | 0.0111 | -0.182 | -0.239 | inactive
ANKK1 | -0.868 | 0.77 | 0.0813 | -0.0146 | -0.049 | inactive
NRK | 0.32 | 0.943 | 0.116 | 0.193 | -0.155 | inactive
PKMYT1 | 0.0485 | 0.903 | 0.12 | 0.11 | -0.196 | inactive
PIK3C2A | -2.15 | 0.585 | 0.164 | 0.0782 | -0.0607 | inactive
PRKCI | 0.176 | 0.922 | 0.0338 | 0.0757 | -0.0186 | inactive
SHPK | -1.34 | 0.702 | -0.121 | 0.0259 | -0.0153 | inactive
PIK3C2G | -0.183 | 0.87 | 0.0692 | 0.0099 | -0.0506 | inactive
MED24 | 0.715 | 1 | -0.201 | -0.134 | -0.362 | inactive
GUCY2C | 0.715 | 1 | 0.0528 | 0.000107 | -0.218 | inactive
MAST2 | 0.715 | 1 | 0.089 | 0.0447 | -0.167 | inactive
MERTK | -0.246 | 0.86 | 0.0353 | -0.117 | -0.236 | inactive
PRKAR2A | 0.715 | 1 | -0.0197 | 0.00503 | -0.213 | inactive
PRP4K | -0.46 | 0.829 | 0.0483 | -0.00957 | -0.0344 | inactive
ERBB3 | -0.246 | 0.86 | 0.154 | 0.0272 | -0.0297 | inactive
NME1 | 0.715 | 1 | -0.14 | -0.0373 | -0.129 | inactive
PKDCC | 0.53 | 0.973 | 0.172 | 0.169 | 0.0499 | inactive
ADPGK | -0.52 | 0.821 | -0.0392 | -0.0912 | -0.155 | inactive
